Laboratory results published in article PMC11844732.
No constants are given. Whether binding was seen depends on the method and setting. Binding seen in cells or lysates may run through a third protein. Some binding calls cover weakened binding; strength is not graded here.

Molecular target: T7RNAPC (bacteriophage T7 (amplified from the BL21 (DE3) genome))
Assay: split reporter; spontaneous reassembly of split T7 RNA polymerase without antigen: both fragments (unfused, or as NB fusions) expressed in a cell-free reaction from 5-20 nM plasmid, 0.05 or 0.1 nM pT7LacZ, LacZ activity read as A580

binding | Binder
binds | T7RNAPNev (domain or fragment) NTINIAKNDFSDIELAAIPLNTLADHYGERSARGQLALEHESYEMGEARFRKMFECQLKAGKVADNAAAKPLITTLLPKMIARINDWFEEVKAKRGRRPTAFKFLKEIKPEAVAYITIKTSLACLTSADNTTVQAVASAIGRTIEDEARFGRIRDLEAKHFKKNVEEQLNKRVGHVYK
binds | T7RNAPN (wild type) (domain or fragment) NTINIAKNDFSDIELAAIPFNTLADHYGERLAREQLALEHESYEMGEARFRKMFERQLKAGEVADNAAAKPLITTLLPKMIARINDWFEEVKAKRGKRPTAFQFLQEIKPEAVAYITIKTTLACLTSADNTTVQAVASAIGRAIEDEARFGRIRDLEAKHFKKNVEEQLNKRVGHVYK
